The supplement of paper PMC9233669
Variants at the floor of the assay are shown more often than the library holds them.

Key:
biotinyl-Trp-oxazolone = experiment: self-aminoacylation, catalytic enhancement (BWO) (fold over background); higher = more active; k-Seq, kA / k0A0; sequences stand for … in GGGAAUGGAUCCACAUCUACGAAUUC…UUCACUGCAGACUUGACGAAGCUG
Outline: (§1)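 Mutagenized RNA pools with a 21-nt variable region (0.43 μM) were reacted with each biotinyl-aminoacyl-oxazolone at 2–1250 μM for 90 minutes at room temperature, in 50 μL HEPES/NaCl/KCl/MgCl2/CaCl2 buffer containing 5% acetonitrile at pH 6.9–7.0. RNA captured on streptavidin was quantified by triplicate qPCR and by Illumina sequencing. The fraction reacted for each sequence was fit to a pseudo-first-order model with bootstrapping, and catalytic enhancement is the median kA divided by the uncatalyzed rate, taken as the low-activity peak of a bimodal Gaussian fit.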

biotinyl-Leu-oxazolone = experiment: self-aminoacylation, catalytic enhancement (BLO) (fold over background); higher = more active; k-Seq, kA / k0A0; sequences stand for … in GGGAAUGGAUCCACAUCUACGAAUUC…UUCACUGCAGACUUGACGAAGCUG
Outline: as §1

biotinyl-Val-oxazolone = experiment: self-aminoacylation, catalytic enhancement (BVO) (fold over background); higher = more active; k-Seq, kA / k0A0; sequences stand for … in GGGAAUGGAUCCACAUCUACGAAUUC…UUCACUGCAGACUUGACGAAGCUG
Outline: as §1

biotinyl-Ile-oxazolone = experiment: self-aminoacylation, catalytic enhancement (BIO) (fold over background); higher = more active; k-Seq, kA / k0A0; sequences stand for … in GGGAAUGGAUCCACAUCUACGAAUUC…UUCACUGCAGACUUGACGAAGCUG
Outline: as §1

biotinyl-Met-oxazolone = experiment: self-aminoacylation, catalytic enhancement (BMO) (fold over background); higher = more active; k-Seq, kA / k0A0; sequences stand for … in GGGAAUGGAUCCACAUCUACGAAUUC…UUCACUGCAGACUUGACGAAGCUG
Outline: as §1

biotinyl-Phe-oxazolone = experiment: self-aminoacylation, catalytic enhancement (BFO) (fold over background); higher = more active; k-Seq, kA / k0A0; sequences stand for … in GGGAAUGGAUCCACAUCUACGAAUUC…UUCACUGCAGACUUGACGAAGCUG
Outline: as §1

Sequence	self-aminoacylation (biotinyl-Trp-oxazolone)	self-aminoacylation (biotinyl-Leu-oxazolone)	self-aminoacylation (biotinyl-Val-oxazolone)	self-aminoacylation (biotinyl-Ile-oxazolone)	self-aminoacylation (biotinyl-Met-oxazolone)	self-aminoacylation (biotinyl-Phe-oxazolone)
CUACACUUCAAGCAUUCGGUC [Fam1B.1 aminoacylation ribozyme variant]	1.11	0.87	1.05	1.17	0.873	1.04
CUACAUCAAACAAUCGGUAUG [Fam1A.1 aminoacylation ribozyme variant]	0.658	0.673	0.594	0.737	0.832	0.996
CUACAUCAAACAAUCGGUCUG [Fam1A.1 aminoacylation ribozyme variant]	1.41	0.736	0.82	0.799	0.759	2.27
CUACAUCAAACAAUCGUUCUG [Fam1A.1 aminoacylation ribozyme variant]	0.423	0.831	0.691	0.708	0.634	0.758
CUACAUCAAACAAUGGGUCUG [Fam1A.1 aminoacylation ribozyme variant]	0.805	1.12	1.02	1.25	1.45	2.95
CUACCUCAGACAAUCGGUCUG [Fam1A.1 aminoacylation ribozyme variant]	0.724	0.653	0.985	0.992	0.835	0.589
CUACCUUAAACAAUCGGUCUG [Fam1A.1 aminoacylation ribozyme variant]	0.987	0.913	0.797	0.796	0.994	0.804
CUACGUCAAACAAUCGGACUG [Fam1A.1 aminoacylation ribozyme variant]	1.48	1.19	1.37	1.42	1.14	0.786
CUACGUCAAACAAUCGGUCUA [Fam1A.1 aminoacylation ribozyme variant]	1.33	1.14	1.19	1.03	1.1	1.03
CUACGUCAAACUAUCGGUCUG [Fam1A.1 aminoacylation ribozyme variant]	1.58	1.72	1.76	1.58	1.95	5.88
CUACGUCAAUCAAUCGGUCUG [Fam1A.1 aminoacylation ribozyme variant]	1.3	1.33	1.41	1.23	1.11	0.909
CUACGUCACACAAUCGGUCUG [Fam1A.1 aminoacylation ribozyme variant]	0.986	0.98	0.962	0.999	0.943	0.794
CUACUACAAACAACCGGUCUG [Fam1A.1 aminoacylation ribozyme variant]	0.954	0.845	1.14	1.19	0.601	1.12
CUACUACAAACAAUCGGUCGG [Fam1A.1 aminoacylation ribozyme variant]	0.512	0.843	0.759	0.776	0.99	0.903
CUACUACAAACAAUCGGUCUA [Fam1A.1 aminoacylation ribozyme variant]	0.63	0.625	0.868	0.721	0.623	1.05
CUACUCCAAACAAUCGGGCUG [Fam1A.1 aminoacylation ribozyme variant]	1.14	1.29	1.01	1.36	1.61	1.02
CUACUCCAAACAAUCGGUCCG [Fam1A.1 aminoacylation ribozyme variant]	1.54	0.961	0.895	0.891	1.06	1.11
CUACUCCAAACCAUCGGUCUG [Fam1A.1 aminoacylation ribozyme variant]	1.01	1.03	0.971	1.1	0.961	1.16
CUACUCCCAACAAUCGGUCUG [Fam1A.1 aminoacylation ribozyme variant]	0.951	0.777	1.09	0.832	0.749	0.703
CUACUGCAAUCAAUCGGUCUG [Fam1A.1 aminoacylation ribozyme variant]	0.766	0.7	0.883	0.763	0.743	2.9
CUACUUAAAACAAUCGGUCGG [Fam1A.1 aminoacylation ribozyme variant]	0.59	0.857	0.74	0.878	0.786	0.727
